The target in experiment [1] is T1, IgSF containing LRR protein 2 extracellular domain, AP- or Fc-tagged (interactome library) (not stated (human or mouse sequence cloned)) (UniProt Q5RKR3).
T1 sequence: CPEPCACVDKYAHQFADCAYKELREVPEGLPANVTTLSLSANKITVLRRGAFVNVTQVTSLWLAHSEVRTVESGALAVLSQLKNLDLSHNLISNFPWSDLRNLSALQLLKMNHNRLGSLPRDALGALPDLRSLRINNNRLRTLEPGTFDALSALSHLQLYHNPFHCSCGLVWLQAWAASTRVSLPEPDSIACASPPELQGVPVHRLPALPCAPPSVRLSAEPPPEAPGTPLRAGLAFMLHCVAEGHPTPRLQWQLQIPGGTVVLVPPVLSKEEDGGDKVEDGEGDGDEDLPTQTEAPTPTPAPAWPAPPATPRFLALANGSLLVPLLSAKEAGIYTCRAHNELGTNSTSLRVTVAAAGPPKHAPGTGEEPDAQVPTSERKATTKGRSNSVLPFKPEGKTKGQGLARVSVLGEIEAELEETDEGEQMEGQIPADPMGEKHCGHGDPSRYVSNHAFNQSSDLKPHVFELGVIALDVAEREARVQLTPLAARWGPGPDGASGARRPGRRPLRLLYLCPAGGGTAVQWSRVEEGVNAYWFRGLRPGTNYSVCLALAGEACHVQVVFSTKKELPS
The experiment in a line: ELISA; 384-well pairwise screen; ecto-AP bait captured by plate-bound anti-AP antibody, ecto-Fc prey detected with anti-human IgG1-HRP; conditioned media; 4 h at RT; both orientations, three independent experiments; positive = OD650 > 5-fold over background, detected at least twice.

Protein sequences, listed by entry. Tags and fused reporters are not part of them. Residues count along the entry.
UniProt Q99K10, residues 46-697: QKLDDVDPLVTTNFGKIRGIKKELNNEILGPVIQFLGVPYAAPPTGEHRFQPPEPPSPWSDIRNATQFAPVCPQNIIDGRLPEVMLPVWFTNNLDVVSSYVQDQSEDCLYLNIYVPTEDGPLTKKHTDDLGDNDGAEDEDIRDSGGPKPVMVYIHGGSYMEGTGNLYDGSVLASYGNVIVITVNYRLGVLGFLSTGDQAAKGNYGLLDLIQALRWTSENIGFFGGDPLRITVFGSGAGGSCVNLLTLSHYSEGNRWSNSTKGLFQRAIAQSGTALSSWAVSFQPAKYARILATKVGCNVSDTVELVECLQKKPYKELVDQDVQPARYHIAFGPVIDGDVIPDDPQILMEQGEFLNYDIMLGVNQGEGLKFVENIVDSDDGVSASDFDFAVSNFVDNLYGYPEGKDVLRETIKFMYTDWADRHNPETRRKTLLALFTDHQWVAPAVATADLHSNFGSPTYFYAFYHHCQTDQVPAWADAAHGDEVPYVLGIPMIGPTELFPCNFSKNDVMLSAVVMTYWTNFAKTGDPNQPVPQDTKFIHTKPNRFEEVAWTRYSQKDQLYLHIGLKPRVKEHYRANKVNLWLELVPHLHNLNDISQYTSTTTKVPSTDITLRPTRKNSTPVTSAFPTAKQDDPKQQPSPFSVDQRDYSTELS
UniProt Q6VNS1, residues 32-429: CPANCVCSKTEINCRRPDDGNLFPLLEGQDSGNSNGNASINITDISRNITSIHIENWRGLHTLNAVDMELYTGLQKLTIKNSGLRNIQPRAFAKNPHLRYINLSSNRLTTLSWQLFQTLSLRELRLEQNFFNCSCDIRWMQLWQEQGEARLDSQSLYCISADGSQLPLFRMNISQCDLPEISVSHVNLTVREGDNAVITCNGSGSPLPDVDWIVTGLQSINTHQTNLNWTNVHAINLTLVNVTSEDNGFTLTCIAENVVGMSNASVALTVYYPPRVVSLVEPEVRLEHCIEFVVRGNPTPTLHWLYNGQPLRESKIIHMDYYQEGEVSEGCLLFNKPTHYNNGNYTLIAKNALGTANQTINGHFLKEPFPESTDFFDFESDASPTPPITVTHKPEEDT
UniProt O88998, residues 17-485: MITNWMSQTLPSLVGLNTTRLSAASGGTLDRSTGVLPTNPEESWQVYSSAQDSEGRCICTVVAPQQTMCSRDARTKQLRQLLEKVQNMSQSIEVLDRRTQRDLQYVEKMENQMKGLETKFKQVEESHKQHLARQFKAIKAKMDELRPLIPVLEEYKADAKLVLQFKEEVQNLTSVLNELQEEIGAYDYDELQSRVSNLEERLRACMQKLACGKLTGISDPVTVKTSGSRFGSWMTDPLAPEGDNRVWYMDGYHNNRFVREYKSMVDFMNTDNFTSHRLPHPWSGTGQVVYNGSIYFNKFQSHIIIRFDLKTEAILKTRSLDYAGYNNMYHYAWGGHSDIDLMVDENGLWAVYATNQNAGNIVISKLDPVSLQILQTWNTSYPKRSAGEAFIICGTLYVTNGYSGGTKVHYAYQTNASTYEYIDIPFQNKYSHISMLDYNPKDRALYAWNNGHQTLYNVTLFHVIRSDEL

For experiment [2], the target named is NLGN1 extracellular domain, AP- or Fc-tagged (interactome library) (not stated (human or mouse sequence cloned)) (UniProt Q99K10). The experiment is described as above.
In experiment [3] the target is T2, Tenascin-R-Fc, purified (not stated (human or mouse sequence cloned)) (UniProt Q8BYI9).
T2 sequence: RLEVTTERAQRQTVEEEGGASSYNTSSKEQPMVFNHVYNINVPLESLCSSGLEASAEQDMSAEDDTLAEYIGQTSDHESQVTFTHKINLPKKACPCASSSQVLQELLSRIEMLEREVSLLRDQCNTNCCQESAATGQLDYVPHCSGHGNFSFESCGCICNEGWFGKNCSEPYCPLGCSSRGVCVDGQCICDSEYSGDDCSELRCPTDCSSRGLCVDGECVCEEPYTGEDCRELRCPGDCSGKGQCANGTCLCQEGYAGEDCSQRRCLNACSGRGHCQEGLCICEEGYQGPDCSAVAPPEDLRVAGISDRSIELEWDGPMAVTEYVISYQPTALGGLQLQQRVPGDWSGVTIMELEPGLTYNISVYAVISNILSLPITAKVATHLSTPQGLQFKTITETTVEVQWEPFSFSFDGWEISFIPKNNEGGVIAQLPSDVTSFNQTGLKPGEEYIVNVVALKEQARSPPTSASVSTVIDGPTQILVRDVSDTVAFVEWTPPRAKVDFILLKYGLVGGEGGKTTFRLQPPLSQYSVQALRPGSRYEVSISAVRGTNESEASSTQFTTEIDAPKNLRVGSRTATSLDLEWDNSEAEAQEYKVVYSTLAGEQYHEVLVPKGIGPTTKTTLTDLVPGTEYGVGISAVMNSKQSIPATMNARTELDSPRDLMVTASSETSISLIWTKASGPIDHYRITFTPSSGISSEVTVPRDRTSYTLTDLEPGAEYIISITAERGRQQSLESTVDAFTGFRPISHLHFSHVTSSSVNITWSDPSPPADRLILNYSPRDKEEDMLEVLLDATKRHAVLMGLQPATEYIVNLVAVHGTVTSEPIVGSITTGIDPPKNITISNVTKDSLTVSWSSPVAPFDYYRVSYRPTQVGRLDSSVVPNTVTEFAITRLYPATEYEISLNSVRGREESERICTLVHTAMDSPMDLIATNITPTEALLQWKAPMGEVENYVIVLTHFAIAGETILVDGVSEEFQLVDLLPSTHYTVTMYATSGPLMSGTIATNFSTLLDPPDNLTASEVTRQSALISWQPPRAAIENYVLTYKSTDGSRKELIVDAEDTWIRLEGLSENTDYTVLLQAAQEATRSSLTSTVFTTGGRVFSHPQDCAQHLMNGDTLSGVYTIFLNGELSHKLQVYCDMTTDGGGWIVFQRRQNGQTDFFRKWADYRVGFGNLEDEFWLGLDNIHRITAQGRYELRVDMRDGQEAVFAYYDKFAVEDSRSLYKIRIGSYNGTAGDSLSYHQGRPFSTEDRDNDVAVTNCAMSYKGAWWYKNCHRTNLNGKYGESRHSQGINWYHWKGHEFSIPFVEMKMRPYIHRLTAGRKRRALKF
The experiment in a line: pull-down; 3 µg Fc protein added to RIPA lysate of transfected HEK293T cells, overnight 4 °C; Protein-A agarose; anti-GFP western blot; only the target purified. On the technique in general: Immunoblotting shows a protein as a band on a membrane.

Experiment [4] has as its target T3, Tenascin-R-Fc (not stated (human or mouse sequences)) (UniProt Q8BYI9).
T3 sequence: T2 sequence
The experiment in a line: pull-down; 3 ug purified Fc fusion added to 1 ml RIPA lysate of transfected HEK293T cells, overnight 4 °C, Protein-A agarose beads, western blot with anti-GFP; only the target purified.

Experiment [5] concerns the target T4, Tenascin-R, AP- or Fc-tagged (interactome library) (not stated (human or mouse sequence cloned)) (UniProt Q8BYI9).
T4 sequence: T2 sequence
Description: ELISA; 384-well pairwise screen; ecto-AP bait captured by plate-bound anti-AP antibody, ecto-Fc prey detected with anti-human IgG1-HRP; conditioned media; 4 h at RT; both orientations, three independent experiments; positive = OD650 > 5-fold over background, detected at least twice. For orientation: An ELISA detects its analyte on a solid surface through an enzyme-linked reagent.

Experiment [6] has as its target TrkC ectodomain (Fc and AP fusions) (not stated (human or mouse ectodomain sequences)) (UniProt Q6VNS1). The experiment in a line: ELISA; 384-well pairwise screen; ecto-AP fusion captured on plate by anti-AP antibody, ecto-Fc fusion detected with anti-human IgG1-HRP; conditioned media, 4 h RT; both orientations; positive: OD650 > 5-fold over background, detected at least twice in three experiments.

No constants are given. Whether binding was seen depends on the method and setting. For part of these data: Binding seen in cells or lysates may run through a third protein. Some binding calls cover weakened binding; strength is not graded here. For part of these data: Sequences can lack the tags named with a protein.

On to “NLGN1 extracellular domain, AP- or Fc-tagged (interactome library) (from UniProt Q99K10 46-697) (domain or fragment)”, for which the binding result in experiment [1] is “binds”.

Take “neuronal olfactomedin-related ER localized protein/olfactomedin-1, AP- or Fc-tagged (interactome library) (from UniProt O88998 17-485)”: the binding result in experiment [2] is reported as “binds”.

B1: IgSF8-EGFP (receptor, UniProt Q8R366 26-611)
chain: RQVHVPRGPLYRVAGTAVSISCNVSDYEGPAQQDFEWFMYRPEAPATSLGIVSTKDSQFSYAVFGPRVASGDLQVQRLKGDSVVLKIARLQAQDSGFYECYTPSTDTQYLGNYSAKVELRVLPDELQVSAAPPGPRGRQAATSPSRLTVHEGQELALGCLAQTKTKKHTHLSVSFGRAIPEAPVGRATLQEVVGLRSDMAVEAGAPYAERLASGELRLSKEGTDRYRMVVGGAQAGDSGTYHCTAAEWIQDPDGSWVQVAEKRAVLAHVDVQTLSSQLAVTVGPGERRIGPGEPLELLCNVSGALPPPGRHAAYSVGWEMAPAGAPGPGRLVAQLDTEGIGSLGPGYEDRHIAMEKVASRTYRLRLEAARPADAGTYRCLAKAYVRGSGTRLREAASARSRPLPVHVREEGVVLEAVAWLAGGTVYRGETASLLCNISVRGGPPGLRLAASWWVERPEEGELSSGPAQLVGGVGQDGVAELGVRPGGGPVSVELVGPRSHRLRLHGLGPEDEGIYHCAPSAWVQHADYSWYQAGSARSGPVTVYPYTHAVDTLFVPLLVGTGVALVTGASVLATITCCFMKRMRKR
For B1, the binding entry in experiment [3] and in experiment [4] was “binds” throughout.

B2: IgSF8 extracellular domain, AP- or Fc-tagged (interactome library) (domain or fragment, UniProt Q8R366 26-577)
chain: RQVHVPRGPLYRVAGTAVSISCNVSDYEGPAQQDFEWFMYRPEAPATSLGIVSTKDSQFSYAVFGPRVASGDLQVQRLKGDSVVLKIARLQAQDSGFYECYTPSTDTQYLGNYSAKVELRVLPDELQVSAAPPGPRGRQAATSPSRLTVHEGQELALGCLAQTKTKKHTHLSVSFGRAIPEAPVGRATLQEVVGLRSDMAVEAGAPYAERLASGELRLSKEGTDRYRMVVGGAQAGDSGTYHCTAAEWIQDPDGSWVQVAEKRAVLAHVDVQTLSSQLAVTVGPGERRIGPGEPLELLCNVSGALPPPGRHAAYSVGWEMAPAGAPGPGRLVAQLDTEGIGSLGPGYEDRHIAMEKVASRTYRLRLEAARPADAGTYRCLAKAYVRGSGTRLREAASARSRPLPVHVREEGVVLEAVAWLAGGTVYRGETASLLCNISVRGGPPGLRLAASWWVERPEEGELSSGPAQLVGGVGQDGVAELGVRPGGGPVSVELVGPRSHRLRLHGLGPEDEGIYHCAPSAWVQHADYSWYQAGSARSGPVTVYPYTHAVDT
As to B2, the binding entry in experiment [5] is listed as “binds”.

B3: RPTPσ ectodomain (Fc and AP fusions) (domain or fragment, UniProt B0V2N1 30-1257)
chain: EEPPRFIREPKDQIGVSGGVASFVCQATGDPKPRVTWNKKGKKVNSQRFETIDFDESSGAVLRIQPLRTPRDENVYECVAQNSVGEITIHAKLTVLREDQLPPGFPNIDMGPQLKVVERTRTATMLCAASGNPDPEITWFKDFLPVDPSASNGRIKQLRSGALQIESSEETDQGKYECVATNSAGVRYSSPANLYVRVRRVAPRFSILPMSHEIMPGGNVNITCVAVGSPMPYVKWMQGAEDLTPEDDMPVGRNVLELTDVKDSANYTCVAMSSLGVIEAVAQITVKSLPKAPGTPVVTENTATSITVTWDSGNPDPVSYYVIEYKSKSQDGPYQIKEDITTTRYSIGGLSPNSEYEIWVSAVNSIGQGPPSESVVTRTGEQAPASAPRNVQARMLSATTMIVQWEEPVEPNGLIRGYRVYYTMEPEHPVGNWQKHNVDDSLLTTVGSLLEDETYTVRVLAFTSVGDGPLSDPIQVKTQQGVPGQPMNLRAEAKSETSIGLSWSAPRQESVIKYELLFREGDRGREVGRTFDPTTAFVVEDLKPNTEYAFRLAARSPQGLGAFTAVVRQRTLQAKPSAPPQDVKCTSLRSTAILVSWRPPPPETHNGALVGYSVRYRPLGSEDPDPKEVNNIPPTTTQILLEALEKWTEYRVTAVAYTEVGPGPESSPVVVRTDEDVPSAPPRKVEAEALNATAIRVLWRSPTPGRQHGQIRGYQVHYVRMEGAEARGPPRIKDIMLADAQEMVITNLQPETAYSITVAAYTMKGDGARSKPKVVVTKGAVLGRPTLSVQQTPEGSLLARWEPPADAAEDPVLGYRLQFGREDAAPATLELAAWERRFAAPAHKGATYVFRLAARGRAGLGEEAAAALSIPEDAPRGFPQILGAAGNVSAGSVLLRWLPPVPAERNGAIIKYTVSVREAGAPGPATETELAAAAQPGAETALTLRGLRPETAYELRVRAHTRRGPGPFSPPLRYRLARDPVSPKNFKVKMIMKTSVLLSWEFPDNYNSPTPYKIQYNGLTLDVDGRTTKKLITHLKPHTFYNFVLTNRGSSLGGLQQTVTARTAFNMLSGKPSVAPKPDNDGFIVVYLPDGQSPVTVQNYFIVMVPLRKSRGGQFPVLLGSPEDMDLEELIQDISRLQRRSLRHSRQLEVPRPYIAARFSILPAVFHPGNQKQYGGFDNRGLEPGHRYVLFVLAVLQKNEPTFAASPFSDPFQLDNPDPQPIVDGEEG
For B3, the binding result in experiment [6] is on record as “binds”.

For the origin of these results see article PMC7560607, “Synapse type-specific proteomic dissection identifies IgSF8 as a hippocampal CA3 microcircuit organizer” (Nature Communications, 2020).
